# Results are given in words; binding and its absence hold for the method and conditions named. Binding seen in cells or lysates may run through a third protein. Some entries that bind do so weakly or less than the wild type.
# The chains behind the UniProt entries cited, without tags or fusion partners.
# UniProt P06748: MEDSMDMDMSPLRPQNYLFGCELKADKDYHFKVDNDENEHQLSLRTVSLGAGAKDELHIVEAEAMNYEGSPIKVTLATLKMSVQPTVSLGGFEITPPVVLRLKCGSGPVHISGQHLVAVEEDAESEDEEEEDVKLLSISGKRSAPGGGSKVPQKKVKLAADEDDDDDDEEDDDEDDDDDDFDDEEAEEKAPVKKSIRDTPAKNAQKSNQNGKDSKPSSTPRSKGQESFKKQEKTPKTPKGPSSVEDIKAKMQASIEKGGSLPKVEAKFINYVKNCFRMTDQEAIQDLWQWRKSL
# UniProt Q61937: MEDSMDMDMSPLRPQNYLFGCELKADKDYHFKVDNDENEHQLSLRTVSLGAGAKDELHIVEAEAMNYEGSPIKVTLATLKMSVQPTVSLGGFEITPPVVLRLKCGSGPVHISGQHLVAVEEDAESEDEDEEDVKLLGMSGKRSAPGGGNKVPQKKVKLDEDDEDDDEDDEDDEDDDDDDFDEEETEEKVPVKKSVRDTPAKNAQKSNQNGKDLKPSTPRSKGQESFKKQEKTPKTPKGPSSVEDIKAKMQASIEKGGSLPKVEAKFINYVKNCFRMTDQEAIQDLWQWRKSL
# T1: RABL6A (RAB-like 6 isoform A), endogenous mouse (mouse (endogenous in p53-/- MEFs)) (UniProt Q5U3K5)
# T1 sequence: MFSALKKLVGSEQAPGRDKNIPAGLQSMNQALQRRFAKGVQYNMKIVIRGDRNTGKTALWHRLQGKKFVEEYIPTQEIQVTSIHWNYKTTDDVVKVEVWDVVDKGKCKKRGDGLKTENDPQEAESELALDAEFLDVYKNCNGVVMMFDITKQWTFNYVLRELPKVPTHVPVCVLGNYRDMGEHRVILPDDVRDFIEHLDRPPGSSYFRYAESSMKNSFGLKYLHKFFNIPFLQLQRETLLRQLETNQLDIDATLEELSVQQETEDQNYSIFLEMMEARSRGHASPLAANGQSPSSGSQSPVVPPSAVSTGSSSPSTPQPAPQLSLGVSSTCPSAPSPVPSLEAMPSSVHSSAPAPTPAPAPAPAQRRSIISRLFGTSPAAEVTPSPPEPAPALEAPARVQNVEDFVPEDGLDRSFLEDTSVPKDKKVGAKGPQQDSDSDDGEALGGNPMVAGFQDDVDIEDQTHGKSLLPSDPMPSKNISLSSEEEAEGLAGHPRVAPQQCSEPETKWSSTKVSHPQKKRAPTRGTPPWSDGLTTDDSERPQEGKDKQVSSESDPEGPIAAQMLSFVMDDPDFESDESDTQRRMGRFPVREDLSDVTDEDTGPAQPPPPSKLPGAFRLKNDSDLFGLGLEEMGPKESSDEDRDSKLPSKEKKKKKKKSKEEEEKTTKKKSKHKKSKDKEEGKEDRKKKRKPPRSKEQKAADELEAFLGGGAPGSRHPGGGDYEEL
# B1: ARF (Alternative Reading Frame protein), endogenous mouse (protein, UniProt Q64364 1-169)
# chain: MGRRFLVTVRIQRAGRPLQERVFLVKFVRSRRPRTASCALAFVNMLLRLERILRRGPHRNPGPGDDDGQRSRSSSSAQLRCRFELRGPHYLLPPGARRSAGRLPGHAGGAARVRGSAGCARCLGSPAARLGPRAGTSRHRAIFAFRWVLFVFRWVVFVYRWERRPDRRA
# B2: in vitro translated RABL6A (protein, UniProt Q3YEC7 1-729)
# chain: MFSALKKLVGSDQAPGRDKNIPAGLQSMNQALQRRFAKGVQYNMKIVIRGDRNTGKTALWHRLQGRPFVEEYIPTQEIQVTSIHWSYKTTDDIVKVEVWDVVDKGKCKKRGDGLKMENDPQEAESEMALDAEFLDVYKNCNGVVMMFDITKQWTFNYILRELPKVPTHVPVCVLGNYRDMGEHRVILPDDVRDFIDNLDRPPGSSYFRYAESSMKNSFGLKYLHKFFNIPFLQLQRETLLRQLETNQLDMDATLEELSVQQETEDQNYGIFLEMMEARSRGHASPLAANGQSPSPGSQSPVVPAGAVSTGSSSPGTPQPAPQLPLNAAPPSSVPPVPPSEALPPPACPSAPAPRRSIISRLFGTSPATEAAPPPPEPVPAAEGPATVQSVEDFVPDDRLDRSFLEDTTPARDEKKVGAKAAQQDSDSDGEALGGNPMVAGFQDDVDLEDQPRGSPPLPAGPVPSQDITLSSEEEAEVAAPTKGPAPAPQQCSEPETKWSSIPASKPRRGTAPTRTAAPPWPGGVSVRTGPEKRSSTRPPAEMEPGKGEQASSSESDPEGPIAAQMLSFVMDDPDFESEGSDTQRRADDFPVRDDPSDVTDEDEGPAEPPPPPKLPLPAFRLKNDSDLFGLGLEEAGPKESSEEGKEGKTPSKEKKKKKKKGKEEEEKAAKKKSKHKKSKDKEEGKEERRRRQQRPPRSRERTAADELEAFLGGGAPGGRHPGGGDYEEL
# modifications: 35S-labeled
# How the values were obtained:
# [1] = biological target: T1, RABL6A (RAB-like 6 isoform A), endogenous mouse (mouse (endogenous in p53-/- MEFs)); assay: co-IP; endogenous proteins; nuclear and cytosolic fractions of p53-/- MEFs; IP with RABL6 antibodies versus control IgG, western blot for NPM and ARF
# [2] = biological target: GST-NPM recombinant protein (UniProt P06748); assay: pull-down; 35S-labeled in vitro translated RABL6A on GST-NPM recombinant protein versus GST control; autoradiography; only the target purified
Molecule,binding [1],binding [2]
"nucleophosmin/B23 (NPM), endogenous mouse (from UniProt Q61937 1-292)",binds,
B1,binds,
B2,,binds

# From PMC3839920
